Measurements reported in patent US20030162228A1.
No constants are given. Whether binding was seen depends on the method and setting. For some of these results: Binding seen in cells or lysates may run through a third protein. Some entries that bind do so weakly or less than the wild type. Where a sequence is shown, tags or fusion partners need not be part of it. Values belong to the binder of their own block, whether it stands above or below them.

Key:
[1] = biological target: T1, TAK1 expressed from yeast 2-hybrid expression vector pBTMHu11F (Homo sapiens (Human)) (UniProt O43318); assay: yeast 2-hybrid method
T1 sequence: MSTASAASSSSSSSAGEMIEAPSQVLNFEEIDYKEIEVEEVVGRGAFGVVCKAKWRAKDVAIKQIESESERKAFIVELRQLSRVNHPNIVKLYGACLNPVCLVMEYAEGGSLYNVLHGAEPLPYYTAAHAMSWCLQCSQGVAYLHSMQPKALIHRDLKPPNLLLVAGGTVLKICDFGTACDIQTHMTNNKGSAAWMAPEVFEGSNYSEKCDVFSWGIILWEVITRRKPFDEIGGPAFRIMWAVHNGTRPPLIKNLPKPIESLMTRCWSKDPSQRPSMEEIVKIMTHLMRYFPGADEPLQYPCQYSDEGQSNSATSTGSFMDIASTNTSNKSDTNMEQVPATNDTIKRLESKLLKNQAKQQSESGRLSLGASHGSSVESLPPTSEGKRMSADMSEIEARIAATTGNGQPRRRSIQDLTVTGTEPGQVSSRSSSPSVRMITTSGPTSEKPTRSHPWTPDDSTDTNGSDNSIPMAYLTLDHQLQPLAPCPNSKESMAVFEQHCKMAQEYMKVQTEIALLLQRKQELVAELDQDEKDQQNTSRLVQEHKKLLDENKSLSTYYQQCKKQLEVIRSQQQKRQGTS

[2] = biological target: T2, recombinant human TAK1-6×His polypeptide (human) (UniProt O43318); assay: co-immunoprecipitation with anti-TAK1 antibody from mixed COS-7 cell extracts, Western analysis with anti-FLAG M2 antibody
T2 sequence: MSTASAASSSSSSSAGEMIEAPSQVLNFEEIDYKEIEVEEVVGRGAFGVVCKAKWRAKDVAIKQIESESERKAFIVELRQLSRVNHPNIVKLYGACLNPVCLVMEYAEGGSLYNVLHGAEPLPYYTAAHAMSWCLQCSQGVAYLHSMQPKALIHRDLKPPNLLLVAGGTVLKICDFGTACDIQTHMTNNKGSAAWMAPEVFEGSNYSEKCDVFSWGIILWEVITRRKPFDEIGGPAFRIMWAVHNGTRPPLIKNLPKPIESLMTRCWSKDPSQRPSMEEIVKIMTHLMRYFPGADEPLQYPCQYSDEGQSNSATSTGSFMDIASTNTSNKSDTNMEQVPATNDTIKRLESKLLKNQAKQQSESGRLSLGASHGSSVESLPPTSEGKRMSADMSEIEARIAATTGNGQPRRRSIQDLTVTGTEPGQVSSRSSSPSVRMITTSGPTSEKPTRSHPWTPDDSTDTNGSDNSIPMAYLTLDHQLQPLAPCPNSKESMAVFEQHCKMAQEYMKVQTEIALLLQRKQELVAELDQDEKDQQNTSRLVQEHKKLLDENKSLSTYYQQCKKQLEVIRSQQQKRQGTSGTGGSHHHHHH

[3] = biological target: T2, recombinant human TAK1-6×His polypeptide (human); assay: ELISA, legend of FIG. 2
[4] = biological target: T2, recombinant human TAK1-6×His polypeptide (human); assay: ELISA on plate-immobilised TAK1-6×His, absorbance at 405 nm; control wells without TAK1
[5] = biological target: T2, recombinant human TAK1-6×His polypeptide (human); assay: ELISA, TAK1-6×His immobilised (100 ng per well), detection with rabbit anti-MBP antiserum, absorbance at 405 nm

- binding [1]: binds
B1: TAB1C68, fusion with the GAL4 transcription activated domain (pGAD-TAB1) (protein, not shown: large carriers)
chain: QSPTLTLQSTNTHTQSSSSSSDGGLFRSRPAHSLPPGEDGRVEPYVDFAEFYRLWSVDHGEQSVVTAP

- binding [3]: binds
- binding [4]: binds
- binding [5]: binds
B3: recombinant MBP-TAB1C-FLAG polypeptide (protein, not shown: large carriers)
chain: ASTLDEATPTLTNQSPTLTLQSTNTHTQSSSSSSDGGLFRSRPAHSLPPGEDGRVEPYVDFAEFYRLWSVDHGEQSVVTAPDYKDDDDK

The next lines start with the binder.

B2: FLAG-TAB1 (protein)
chain: MDYKDDDDKMAAQRRSLLQSEQQPSWTDDLPLCHLSGVGSASNRSYSADGKGTESHPPEDSWLKFRSENNCFLYGVFNGYDGNRVTNFVAQRLSAELLLGQLNAEHAEADVRRVLLQAFDVVERSFLESIDDALAEKASLQSQLPEGVPQHQLPPQYQKILERLKTLEREISGGAMAVVAVLLNNKLYVANVGTNRALLCKSTVDGLQVTQLNVDHTTENEDELFRLSQLGLDAGKIKQVGIICGQESTRRIGDYKVKYGYTDIDLLSAAKSKPIIAEPEIHGAQPLDGVTGFLVLMSEGLYKALEAAHGPGQANQEIAAMIDTEFAKQTSLDAVAQAVVDRVKRIHSDTFASGGERARFCPRHEDMTLLVRNFGYPLGQMSQPTPSPAPAAGGRVYPVSVPYSSAQSTSKTSVTLSLVMPSQGQMVNGAHSASTLDEATPTLTNQSPTLTLQSTNTHTQSSSSSSDGGLFRSRPAHSLPPGEDGRVEPYVDFAEFYRLWSVDHGEQSVVTAP
- binding [2]: binds

Binder: RPAHSLPPGEDGRVEPYVDFAEFYRLWSVDHGEQSVVTAP (peptide, not shown: large carriers) [TAB1C40, fusion with the GAL4 transcription activated domain (pGAD-TAB1C40)]
- binding [1]: binds

Binder: GLFRSRPAHSLPPGEDGRVEPYVDFAEFYRLWSVDHGEQSVVTAP (peptide, not shown: large carriers) [TAB1C45, fusion with the GAL4 transcription activated domain (pGAD-TAB1C45)]
- binding [1]: binds
